The values below come from paper PMC6744468.

By UniProt entry, the sequences of proteins in these tests, tags left out.
UniProt P60520: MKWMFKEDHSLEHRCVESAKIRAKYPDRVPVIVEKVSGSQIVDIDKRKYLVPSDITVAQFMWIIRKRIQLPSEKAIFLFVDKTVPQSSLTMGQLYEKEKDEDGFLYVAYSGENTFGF
UniProt O95166: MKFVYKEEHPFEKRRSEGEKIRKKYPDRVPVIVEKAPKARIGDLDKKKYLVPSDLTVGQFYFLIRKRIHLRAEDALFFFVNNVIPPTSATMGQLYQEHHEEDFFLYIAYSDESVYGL
UniProt O15078: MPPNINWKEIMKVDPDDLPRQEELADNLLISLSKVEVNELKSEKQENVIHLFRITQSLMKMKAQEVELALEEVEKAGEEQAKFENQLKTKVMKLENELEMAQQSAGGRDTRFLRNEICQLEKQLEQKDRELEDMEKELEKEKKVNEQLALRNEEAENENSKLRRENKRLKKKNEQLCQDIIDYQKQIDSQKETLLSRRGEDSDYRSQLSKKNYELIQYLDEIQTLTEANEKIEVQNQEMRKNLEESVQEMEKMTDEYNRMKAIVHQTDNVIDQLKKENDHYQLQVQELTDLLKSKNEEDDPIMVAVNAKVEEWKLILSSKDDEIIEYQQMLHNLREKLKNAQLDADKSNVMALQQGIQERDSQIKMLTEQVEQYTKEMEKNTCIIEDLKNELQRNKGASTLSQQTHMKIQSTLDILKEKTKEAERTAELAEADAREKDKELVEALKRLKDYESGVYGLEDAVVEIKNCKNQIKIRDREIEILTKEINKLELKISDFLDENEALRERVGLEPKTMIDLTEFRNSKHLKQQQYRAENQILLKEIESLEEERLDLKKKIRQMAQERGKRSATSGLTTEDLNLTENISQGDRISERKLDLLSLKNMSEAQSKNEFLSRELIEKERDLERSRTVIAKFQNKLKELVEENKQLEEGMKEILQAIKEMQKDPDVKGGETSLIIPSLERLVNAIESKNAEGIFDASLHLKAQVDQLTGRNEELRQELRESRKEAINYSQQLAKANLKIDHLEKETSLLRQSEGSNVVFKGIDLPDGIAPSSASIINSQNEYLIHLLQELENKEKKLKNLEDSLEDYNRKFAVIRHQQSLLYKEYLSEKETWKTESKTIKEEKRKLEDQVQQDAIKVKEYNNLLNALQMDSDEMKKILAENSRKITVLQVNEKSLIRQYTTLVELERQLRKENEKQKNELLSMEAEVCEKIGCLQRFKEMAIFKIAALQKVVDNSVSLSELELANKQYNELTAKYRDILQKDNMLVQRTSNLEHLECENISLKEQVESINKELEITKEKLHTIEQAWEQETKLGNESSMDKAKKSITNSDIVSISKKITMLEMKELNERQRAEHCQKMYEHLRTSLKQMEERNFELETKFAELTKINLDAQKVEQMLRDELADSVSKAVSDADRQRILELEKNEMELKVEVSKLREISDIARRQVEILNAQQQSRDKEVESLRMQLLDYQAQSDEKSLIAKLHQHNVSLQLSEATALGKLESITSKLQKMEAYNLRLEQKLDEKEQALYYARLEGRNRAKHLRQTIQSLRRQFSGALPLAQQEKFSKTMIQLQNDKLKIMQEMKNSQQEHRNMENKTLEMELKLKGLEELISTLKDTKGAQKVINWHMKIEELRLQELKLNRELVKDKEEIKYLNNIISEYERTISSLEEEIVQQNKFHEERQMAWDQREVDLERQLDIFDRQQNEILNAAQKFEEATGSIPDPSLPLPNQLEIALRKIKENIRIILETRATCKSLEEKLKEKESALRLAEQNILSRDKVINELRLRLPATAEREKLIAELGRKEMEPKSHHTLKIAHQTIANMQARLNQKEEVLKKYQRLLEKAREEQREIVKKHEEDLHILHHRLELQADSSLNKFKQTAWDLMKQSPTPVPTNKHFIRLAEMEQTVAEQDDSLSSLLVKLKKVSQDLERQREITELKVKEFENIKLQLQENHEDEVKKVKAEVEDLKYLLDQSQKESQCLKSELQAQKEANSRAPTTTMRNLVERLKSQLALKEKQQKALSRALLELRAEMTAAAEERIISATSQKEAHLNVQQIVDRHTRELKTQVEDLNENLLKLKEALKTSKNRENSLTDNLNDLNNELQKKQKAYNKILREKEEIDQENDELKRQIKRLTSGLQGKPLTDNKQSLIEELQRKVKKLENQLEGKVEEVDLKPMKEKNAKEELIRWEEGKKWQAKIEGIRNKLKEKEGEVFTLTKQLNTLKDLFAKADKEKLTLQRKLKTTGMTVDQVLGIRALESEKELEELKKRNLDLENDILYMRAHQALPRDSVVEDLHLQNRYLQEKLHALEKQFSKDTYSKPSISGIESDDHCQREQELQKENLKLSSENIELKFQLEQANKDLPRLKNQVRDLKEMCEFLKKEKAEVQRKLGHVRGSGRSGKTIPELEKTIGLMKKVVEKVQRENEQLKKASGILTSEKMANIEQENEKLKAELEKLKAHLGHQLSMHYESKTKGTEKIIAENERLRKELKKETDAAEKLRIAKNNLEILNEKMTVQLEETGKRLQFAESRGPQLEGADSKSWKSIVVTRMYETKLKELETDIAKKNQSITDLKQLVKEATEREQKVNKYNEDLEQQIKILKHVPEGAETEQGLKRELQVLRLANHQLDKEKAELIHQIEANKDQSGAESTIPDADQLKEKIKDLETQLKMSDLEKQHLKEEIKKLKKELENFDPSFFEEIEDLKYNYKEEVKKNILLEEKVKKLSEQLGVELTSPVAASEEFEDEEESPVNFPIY
UniProt Q15154: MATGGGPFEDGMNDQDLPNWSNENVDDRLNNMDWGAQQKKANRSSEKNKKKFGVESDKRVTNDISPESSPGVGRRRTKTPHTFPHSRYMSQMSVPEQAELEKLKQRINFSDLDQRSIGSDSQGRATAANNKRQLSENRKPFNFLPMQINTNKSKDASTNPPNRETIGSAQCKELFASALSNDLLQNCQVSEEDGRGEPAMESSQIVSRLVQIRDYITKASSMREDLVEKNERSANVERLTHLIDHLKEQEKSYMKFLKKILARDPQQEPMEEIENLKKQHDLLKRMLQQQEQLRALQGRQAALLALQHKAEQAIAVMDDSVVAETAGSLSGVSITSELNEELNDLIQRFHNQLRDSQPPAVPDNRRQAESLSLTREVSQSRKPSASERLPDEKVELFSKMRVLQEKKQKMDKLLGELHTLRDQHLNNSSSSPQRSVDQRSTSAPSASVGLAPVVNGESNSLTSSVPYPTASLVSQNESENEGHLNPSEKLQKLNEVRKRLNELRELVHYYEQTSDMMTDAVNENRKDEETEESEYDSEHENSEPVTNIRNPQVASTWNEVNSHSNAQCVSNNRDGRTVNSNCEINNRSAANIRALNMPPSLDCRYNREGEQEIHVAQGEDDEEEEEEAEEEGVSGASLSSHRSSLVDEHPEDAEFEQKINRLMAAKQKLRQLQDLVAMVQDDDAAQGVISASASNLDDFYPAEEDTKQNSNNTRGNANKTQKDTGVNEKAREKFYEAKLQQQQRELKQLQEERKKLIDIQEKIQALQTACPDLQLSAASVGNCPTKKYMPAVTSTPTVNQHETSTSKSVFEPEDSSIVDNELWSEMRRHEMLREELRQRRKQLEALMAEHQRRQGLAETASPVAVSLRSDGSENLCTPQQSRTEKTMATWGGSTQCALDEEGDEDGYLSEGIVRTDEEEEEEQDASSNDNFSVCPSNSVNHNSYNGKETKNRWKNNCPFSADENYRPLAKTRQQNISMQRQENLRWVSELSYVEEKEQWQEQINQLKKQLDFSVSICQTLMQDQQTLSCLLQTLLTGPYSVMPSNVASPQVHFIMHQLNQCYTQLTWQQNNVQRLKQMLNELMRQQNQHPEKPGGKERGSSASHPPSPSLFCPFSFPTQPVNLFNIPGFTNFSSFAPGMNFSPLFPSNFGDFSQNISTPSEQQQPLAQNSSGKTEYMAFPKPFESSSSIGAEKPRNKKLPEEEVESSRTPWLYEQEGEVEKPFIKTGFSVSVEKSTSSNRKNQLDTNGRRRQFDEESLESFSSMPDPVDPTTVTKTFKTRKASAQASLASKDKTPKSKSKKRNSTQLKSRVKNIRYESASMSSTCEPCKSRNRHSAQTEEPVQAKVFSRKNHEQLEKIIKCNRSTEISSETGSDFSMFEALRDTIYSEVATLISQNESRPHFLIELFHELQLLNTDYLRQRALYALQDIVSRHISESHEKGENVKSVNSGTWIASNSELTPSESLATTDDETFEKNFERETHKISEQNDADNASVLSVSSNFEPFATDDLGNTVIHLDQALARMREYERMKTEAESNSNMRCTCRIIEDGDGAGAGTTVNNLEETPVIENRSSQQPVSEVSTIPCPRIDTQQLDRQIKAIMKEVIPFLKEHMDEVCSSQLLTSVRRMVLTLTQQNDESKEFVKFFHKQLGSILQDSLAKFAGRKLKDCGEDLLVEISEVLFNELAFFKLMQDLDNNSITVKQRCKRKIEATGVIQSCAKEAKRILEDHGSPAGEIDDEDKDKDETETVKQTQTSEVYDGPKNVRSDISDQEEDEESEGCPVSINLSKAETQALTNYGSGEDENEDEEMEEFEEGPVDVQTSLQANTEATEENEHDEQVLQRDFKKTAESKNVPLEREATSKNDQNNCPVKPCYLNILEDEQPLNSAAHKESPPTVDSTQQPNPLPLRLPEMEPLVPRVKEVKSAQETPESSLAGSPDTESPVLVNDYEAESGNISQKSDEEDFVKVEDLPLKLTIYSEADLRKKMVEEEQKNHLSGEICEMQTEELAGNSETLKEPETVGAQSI

The target in assay [1] is GFP-GABARAPL2 (human) (UniProt P60520). Briefly: co-IP; GFP-trap precipitation of lysates of HEK293 cells transfected with GFP-tagged constructs (alone or with HA-PCM1 variants); immunoblot for endogenous proteins or HA. (In general: In western blotting, separated proteins are transferred to a membrane and probed.)
The next assay addresses GFP-GABARAP (human) (UniProt O95166). The description is as above.
In assay [2] the target is GFP-GABARAPL2 (human) (UniProt P60520). In words: co-IP; GFP-trap beads split after 1 h with lysate and washed 2 x 5 min in standard IP lysis buffer, or the buffer with 500 mM NaCl, 500 mM NaCl + 1 M urea or 500 mM NaCl + 2 M urea; cell line not stated.
The target is the same in assay [3]. Briefly: co-IP; GFP-trap precipitation from U2OS cells transiently transfected with inducible GFP-tagged constructs and treated with control or CEP131 siRNA; immunoblot for endogenous PCM1 and CEP131.
Assay [4] shares this target. In words: co-IP; GFP-trap MA beads on lysates of doxycycline-induced stable MCF7 cells, standard IP lysis buffer, 1 h at 4 °C, 5 washes, immunoblot for endogenous proteins.

Results are given in words; binding and its absence hold for the method and conditions named. Binding seen in cells or lysates may run through a third protein. Some results given as binding are weak or reduced against the parent protein; the word gives no strength.

Turning to “CEP290, endogenous (from UniProt O15078 1-2479)”, the binding entry with GFP-GABARAPL2 (human) [1] and with GFP-GABARAP (human) was “binds” each time.
Consider HA-PCM1-wt (from UniProt Q15154 1-2024), for which, in the assay with GFP-GABARAPL2 (human) [1], the binding entry is “binds”.
Turning to “pericentriolar material 1 (PCM1), endogenous (from UniProt Q15154 1-2024)”, the binding entry in the assay with GFP-GABARAPL2 (human) [2], with GFP-GABARAPL2 (human) [3] and in the assay with GFP-GABARAPL2 (human) [4] was “binds” each time.
